PubChem BioAssay AID1259308, NCATS, 2017

- Aim: 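Knock-downs that increase output of a recombinant reporter protein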 (primary screen)
- Cell system: human HEK293 embryonic kidney cells stably expressing firefly luciferase (HEK-CMV-Luc2-Hygro)
- Knock-down reagent: single siRNA against human genes, 0.8 pmol siRNA per well
- Time to read-out: 72 h
- Measured: 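Reporter luminescence and viable-cell signal on separate replicate plates, given as percent of non-targeting control and median/MAD z-scores, plus per-cell luciferase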
- Reading the numbers: total luciferase, z-score and total luciferase, % of control: higher = more reporter protein produced; luciferase per cell, z-score: higher = more reporter output per viable cell; viable cells, % of control: higher = more viable cells
- Hit rule: 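An siRNA counts as active if its total luciferase robust z-score exceeds 3; genes with two or more such siRNAs out of three were retested with fresh siRNAs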
- Calls: active = raised luciferase; inactive = no rise
Here is one part, drawn at random, of about 59,000 reagents tested. About 1,510 of all reagents (2.6%) were called active. 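Calls use total luciferase alone and ignore viability, so some active siRNAs may act by altering cell number.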 Unmarked entries are inactive. Reagents against one gene are numbered here.

no.	Target gene	reagent no.	total luciferase, z-score	total luciferase, % of control	luciferase per cell, z-score	viable cells, % of control
1	HNRNPC (heterogeneous nuclear ribonucleoprotein C)	1	3.89 (active)	159	2.29	97.4
2	HNRNPC (heterogeneous nuclear ribonucleoprotein C)	2	4.83 (active)	178	2.74	96.6
3	HNRNPC (heterogeneous nuclear ribonucleoprotein C)	3	4.33 (active)	168	3.55	73.8
4	NIPA2 (NIPA magnesium transporter 2)	1	0.546	92.7	1.11	77.5
5	NIPA2 (NIPA magnesium transporter 2)	2	-1.06	60.8	-1.22	93.7
6	NIPA2 (NIPA magnesium transporter 2)	3	-0.982	62.3	-1.06	92.2
7	CEP72 (centrosomal protein 72)	1	-0.615	69.7	0.965	60.4
8	CEP72 (centrosomal protein 72)	2	2.22	126	1.25	101
9	CEP72 (centrosomal protein 72)	3	1.5	112	0.2	118
10	NOA1 (nitric oxide associated 1)	1	-0.108	79.7	-0.68	107
11	NOA1 (nitric oxide associated 1)	2	0.59	93.6	0.474	92.4
12	NOA1 (nitric oxide associated 1)	3	-0.835	65.3	-0.513	83.5
13	TRPC7	1	1.26	107	1.05	90.6
14	TRPC7	2	-0.59	70.1	-0.35	86
15	TRPC7	3	-1.06	60.8	-1.38	97.7
16	NUDCD2 (NudC domain containing 2)	1	-0.868	64.6	-0.587	84.3
17	NUDCD2 (NudC domain containing 2)	2	0.103	83.9	0.699	78
18	NUDCD2 (NudC domain containing 2)	3	-0.39	74.1	-0.633	97.8
19	SLC25A51	1	-0.147	79	-0.636	104
20	SLC25A51	2	-1.09	60.3	-1.37	96.6
21	SLC25A51	3	0.514	92.1	0.0962	100
22	ZSWIM3 (zinc finger SWIM-type containing 3)	1	0.0985	83.8	-0.288	101
23	ZSWIM3 (zinc finger SWIM-type containing 3)	2	1.51	112	1.4	86.5
24	ZSWIM3 (zinc finger SWIM-type containing 3)	3	0.32	88.3	0.199	93.6
25	RUNX1T1 (RUNX1 partner transcriptional co-repressor 1)	1	0.976	101	0.938	88.4
26	RUNX1T1 (RUNX1 partner transcriptional co-repressor 1)	2	1.13	104	1.58	77
27	RUNX1T1 (RUNX1 partner transcriptional co-repressor 1)	3	-0.244	77	1.03	65.6
28	AP1G2 (adaptor related protein complex 1 subunit gamma 2)	1	1.63	114	-0.0109	128
29	AP1G2 (adaptor related protein complex 1 subunit gamma 2)	2	0.713	96.1	-0.0643	109
30	AP1G2 (adaptor related protein complex 1 subunit gamma 2)	3	-0.61	69.8	-0.951	100
31	TRPM1	1	-0.972	62.6	-1.12	93.8
32	TRPM1	2	-0.188	78.2	-0.159	91.1
33	TRPM1	3	2.3	128	1.35	100
34	SAR1AP3 (secretion associated Ras related GTPase 1A pseudogene 3)	1	-0.324	75.4	0.318	77.5
35	SAR1AP3 (secretion associated Ras related GTPase 1A pseudogene 3)	2	-1.7	48.1	-0.922	68.6
36	SAR1AP3 (secretion associated Ras related GTPase 1A pseudogene 3)	3	0.656	94.9	0.39	95.7
37	PTPRM (protein tyrosine phosphatase receptor type M)	1	-1.7	48.1	-1.7	84.2
38	PTPRM (protein tyrosine phosphatase receptor type M)	2	0.191	85.7	0.0702	94
39	PTPRM (protein tyrosine phosphatase receptor type M)	3	0.382	89.5	0.151	96.1
40	PRAMEF14 (PRAME family member 14)	1	0.299	87.8	0.732	80.9
41	PRAMEF14 (PRAME family member 14)	2	0.797	97.7	0.658	91.8
42	PRAMEF14 (PRAME family member 14)	3	2.4	130	1.69	92.9
43	LPAR3 (lysophosphatidic acid receptor 3)	1	-0.542	71.1	-0.621	93.6
44	LPAR3 (lysophosphatidic acid receptor 3)	2	-1.43	53.4	-1.8	95.7
45	LPAR3 (lysophosphatidic acid receptor 3)	3	-0.821	65.6	-1.39	106
46	UGDH (UDP-glucose 6-dehydrogenase)	1	0.564	93.1	-0.295	112
47	UGDH (UDP-glucose 6-dehydrogenase)	2	2.13	124	1.73	88
48	UGDH (UDP-glucose 6-dehydrogenase)	3	0.435	90.5	0.579	86.9
49	ZNF676 (zinc finger protein 676)	1	-0.0731	80.4	-0.37	99.1
50	ZNF676 (zinc finger protein 676)	2	-2.34	35.4	-1.1	52.8
51	ZNF676 (zinc finger protein 676)	3	0.709	96	0.452	95.2
52	S100P (S100 calcium binding protein P)	1	-0.311	75.7	0.916	66.5
53	S100P (S100 calcium binding protein P)	2	3.56 (active)	153	2.8	81.8
54	S100P (S100 calcium binding protein P)	3	-0.29	76.1	-0.426	95.2
55	UNC5A (unc-5 netrin receptor A)	1	0.291	87.7	0.125	94.8
56	UNC5A (unc-5 netrin receptor A)	2	0.66	95	0.151	102
57	UNC5A (unc-5 netrin receptor A)	3	-0.321	75.5	-1.15	114
58	TRIP4 (thyroid hormone receptor interactor 4)	1	-0.714	67.7	-1.75	120
59	TRIP4 (thyroid hormone receptor interactor 4)	2	0.829	98.4	0.836	88.2
60	TRIP4 (thyroid hormone receptor interactor 4)	3	1.04	103	0.378	104
61	OR10S1 (olfactory receptor family 10 subfamily S member 1)	1	0.0679	83.2	-0.453	105
62	OR10S1 (olfactory receptor family 10 subfamily S member 1)	2	2.82	138	1.91	93.2
63	OR10S1 (olfactory receptor family 10 subfamily S member 1)	3	-1.92	43.7	-0.19	51.4
64	CXCR6 (C-X-C motif chemokine receptor 6)	1	2.44	130	4.06	50.1
65	CXCR6 (C-X-C motif chemokine receptor 6)	2	-0.389	74.1	-0.321	90.1
66	CXCR6 (C-X-C motif chemokine receptor 6)	3	1.85	119	1.4	91.9
67	HRK (harakiri, BCL2 interacting protein)	1	-1.18	58.4	-0.23	69.3
68	HRK (harakiri, BCL2 interacting protein)	2	0.267	87.2	0.0581	96
69	HRK (harakiri, BCL2 interacting protein)	3	1	102	0.395	103
70	ALDH1L1 (aldehyde dehydrogenase 1 family member L1)	1	0.176	85.4	0.923	74.8
71	ALDH1L1 (aldehyde dehydrogenase 1 family member L1)	2	-1.06	60.8	-1.52	101
72	ALDH1L1 (aldehyde dehydrogenase 1 family member L1)	3	-0.873	64.5	-0.937	92.3
73	KRABD1 (KRAB domain containing 1)	1	0.557	93	-0.542	120
74	KRABD1 (KRAB domain containing 1)	2	-0.811	65.8	-1.18	100
75	KRABD1 (KRAB domain containing 1)	3	-0.235	77.2	-1.1	115
